From patent US20100267934A1
These are yes or no findings as the source states them, for the method shown. Some results given as binding are weak or reduced against the parent protein; the word gives no strength. Each block holds one binder with its values, some of them ahead of it.

Assays:
[1] = target: T1, Bet v 1 (UniProt P15494); assay: antigen binding test (protein G Sepharose, 125I-Bet v 1) on Superdex200 fractions of the IgG4 mix incubated with erythrocyte lysate
T1 sequence (125I label in the antigen binding and cross-linking tests, looked up): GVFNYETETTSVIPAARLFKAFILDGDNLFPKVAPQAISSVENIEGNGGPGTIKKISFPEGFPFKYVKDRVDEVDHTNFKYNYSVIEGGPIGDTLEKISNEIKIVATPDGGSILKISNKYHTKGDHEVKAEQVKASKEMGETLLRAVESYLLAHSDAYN

[2] = target: Fel d 1 (UniProt P30438); assay: homologous cross-linking of 125I-Fel d 1 to Sepharose-immobilized Fel d 1, mouse plasma
[3] = target: Fel d 1 (UniProt P30438); assay: antigen binding test (protein G Sepharose, 125I-Fel d 1) on Superdex200 fractions of plasma of a mouse dosed with the IgG4 mix
[4] = target: T1, Bet v 1; assay: heterologous cross-linking assay on Superdex200 fractions of mouse plasma
[5] = target: Fel d 1 (UniProt P30438); assay: as above
[6] = target: T1, Bet v 1; assay: heterologous cross-linking assay (Fel d 1-Bet v 1) after 24 h with reducing agents
[7] = target: Fel d 1 (UniProt P30438); assay: as above
[8] = target: T1, Bet v 1; assay: bispecific activity to Bet v 1 and Fel d 1 in plasma of SCID mice, cross-linking assay
[9] = target: Fel d 1 (UniProt P30438); assay: as above
[10] = target: T1, Bet v 1; assay: heterologous cross-linking assay on Superdex200 fractions after 72 h with erythrocytes
[11] = target: Fel d 1 (UniProt P30438); assay: as above
[12] = target: T1, Bet v 1; assay: heterologous cross-linking assay on Superdex200 fractions of the IgG4 mix incubated with 0.5 mM GSH
[13] = target: Fel d 1 (UniProt P30438); assay: as above
[14] = target: T1, Bet v 1; assay: heterologous cross-linking assay (Sepharose-coupled Fel d 1, 125I-Bet v 1), plasma of nu/nu Balb/c mice
[15] = target: Fel d 1 (UniProt P30438); assay: as above
[16] = target: T1, Bet v 1; assay: heterologous cross-linking assay (Sepharose-coupled recombinant Fel d 1, 125I-Bet v 1) after 24 h with blood components
[17] = target: Fel d 1 (UniProt P30438); assay: as above
[18] = target: T1, Bet v 1; assay: heterologous cross-linking assay (Sepharose-coupled cat extract, 125I-Bet v 1) on Superdex200 fractions, erythrocyte lysate
[19] = target: Fel d 1 (UniProt P30438); assay: as above
[20] = target: T1, Bet v 1; assay: heterologous cross-linking assay (Sepharose-coupled recombinant Fel d 1, 125I-Bet v 1) after 48 h with MNC, erythrocytes or platelets
[21] = target: Fel d 1 (UniProt P30438); assay: as above

binding [1]: binds
B1: Betv1-IgG4 (antibody, V domains shown)
VH: EVQLQQSGAELVKPGASVKLSCTASGFNIKDTYIHWVKQRPEQGLEWVGRIDPATGNTRYDPKFQGKATITADTSSNTAYLQLSSLTSEDTAVYYCASFRPGYALDYWGQGTSVTVSS
VL: DIVMTQSHKFMSTSVGDRVSFTCKASQDVFTAVAWYQQKPGQSPKLLIYWASTRRTGVPDRFTGSGSGTDYTLTISSVQAEDLALYYCQQHFSTPPTFGGGTKLEIK

binding [2]: binds
B2: Feld1-IgG1 (antibody, V domains shown)
VH: QVQLQQPGAELVKPGASVKLSCKASGYSFTSYWMHWLKQRPGQGLEWIGEINPNNGRTYYNEKFKTKATLTVDKSSSTAYMQLNSLTSEDSAVYYCARRLTMVESFAYWGQGTLVTFSA
VL: DIVMTQSPSSLTVTAGEKVTMSCKSSQSLLNSGNQKNYLTWYQQKPGQPPKLLIYWASTRESGVPDRFTGSGSGTDFSLTISSVQAEDLAIYYCQNDYSYPFTFGSGTKLEIK

binding [3]: binds
B3: Feld1-IgG4 (antibody, V domains shown)
VH: QVQLQQPGAELVKPGASVKLSCKASGYSFTSYWMHWLKQRPGQGLEWIGEINPNNGRTYYNEKFKTKATLTVDKSSSTAYMQLNSLTSEDSAVYYCARRLTMVESFAYWGQGTLVTFSA
VL: DIVMTQSPSSLTVTAGEKVTMSCKSSQSLLNSGNQKNYLTWYQQKPGQPPKLLIYWASTRESGVPDRFTGSGSGTDFSLTISSVQAEDLAIYYCQNDYSYPFTFGSGTKLEIK

binding [4]: binds
binding [5]: binds
binding [6]: binds
binding [7]: binds
binding [8]: binds
binding [9]: binds
binding [10]: binds
binding [11]: binds
binding [12]: binds
binding [13]: binds
binding [14]: binds
binding [15]: binds
binding [16]: binds
binding [17]: binds
binding [18]: binds
binding [19]: binds
binding [20]: binds
binding [21]: binds
B4: bispecific IgG4 (Bet v 1-Fel d 1) formed by Fab arm exchange of IgG4-Betv1 and IgG4-Feld1 (bispecific antibody, V domains shown)
VH 1: EVQLQQSGAELVKPGASVKLSCTASGFNIKDTYIHWVKQRPEQGLEWVGRIDPATGNTRYDPKFQGKATITADTSSNTAYLQLSSLTSEDTAVYYCASFRPGYALDYWGQGTSVTVSS
VL 1: DIVMTQSHKFMSTSVGDRVSFTCKASQDVFTAVAWYQQKPGQSPKLLIYWASTRRTGVPDRFTGSGSGTDYTLTISSVQAEDLALYYCQQHFSTPPTFGGGTKLEIK
VH 2: QVQLQQPGAELVKPGASVKLSCKASGYSFTSYWMHWLKQRPGQGLEWIGEINPNNGRTYYNEKFKTKATLTVDKSSSTAYMQLNSLTSEDSAVYYCARRLTMVESFAYWGQGTLVTFSA
VL 2: DIVMTQSPSSLTVTAGEKVTMSCKSSQSLLNSGNQKNYLTWYQQKPGQPPKLLIYWASTRESGVPDRFTGSGSGTDFSLTISSVQAEDLAIYYCQNDYSYPFTFGSGTKLEIK
